PMC6258673
Results are given in words; binding and its absence hold for the method and conditions named. In cells and extracts the contact can be indirect. Some binding calls cover weakened binding; strength is not graded here. For some assays here: Sequences can lack the tags named with a protein. Blank lines part the entries; values can stand above or below the molecule they belong to.

By UniProt entry, the sequences of proteins in these tests, tags left out.
UniProt Q13263: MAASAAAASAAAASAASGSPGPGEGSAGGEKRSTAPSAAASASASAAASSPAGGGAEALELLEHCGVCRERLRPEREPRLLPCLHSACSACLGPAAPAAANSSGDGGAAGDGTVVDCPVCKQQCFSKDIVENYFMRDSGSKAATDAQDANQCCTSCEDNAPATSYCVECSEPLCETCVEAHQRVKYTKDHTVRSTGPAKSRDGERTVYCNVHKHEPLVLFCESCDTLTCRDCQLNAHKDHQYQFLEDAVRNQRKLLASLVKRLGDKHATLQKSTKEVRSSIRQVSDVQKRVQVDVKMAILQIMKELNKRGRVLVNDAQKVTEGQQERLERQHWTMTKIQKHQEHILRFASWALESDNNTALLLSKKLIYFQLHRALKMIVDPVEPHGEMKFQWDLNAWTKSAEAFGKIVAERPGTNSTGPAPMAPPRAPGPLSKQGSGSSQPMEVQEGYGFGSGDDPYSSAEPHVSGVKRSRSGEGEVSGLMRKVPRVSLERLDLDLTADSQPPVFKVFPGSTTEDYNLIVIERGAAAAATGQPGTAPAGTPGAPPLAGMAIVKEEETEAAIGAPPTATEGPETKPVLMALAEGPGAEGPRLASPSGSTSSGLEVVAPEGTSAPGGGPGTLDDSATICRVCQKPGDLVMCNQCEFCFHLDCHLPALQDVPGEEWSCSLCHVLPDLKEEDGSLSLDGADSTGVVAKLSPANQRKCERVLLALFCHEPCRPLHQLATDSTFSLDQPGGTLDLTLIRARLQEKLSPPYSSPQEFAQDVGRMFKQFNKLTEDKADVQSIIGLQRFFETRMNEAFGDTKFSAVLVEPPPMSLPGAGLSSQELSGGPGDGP
UniProt O43791: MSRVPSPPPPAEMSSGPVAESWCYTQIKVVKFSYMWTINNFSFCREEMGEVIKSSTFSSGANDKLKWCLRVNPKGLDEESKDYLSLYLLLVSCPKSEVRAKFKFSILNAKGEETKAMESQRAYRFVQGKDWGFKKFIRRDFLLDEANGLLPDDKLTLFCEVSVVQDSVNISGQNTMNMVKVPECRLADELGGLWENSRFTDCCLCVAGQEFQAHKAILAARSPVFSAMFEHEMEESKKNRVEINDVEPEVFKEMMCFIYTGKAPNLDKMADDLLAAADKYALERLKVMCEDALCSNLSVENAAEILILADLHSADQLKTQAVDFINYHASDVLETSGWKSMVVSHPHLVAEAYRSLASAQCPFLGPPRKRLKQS

Legend:
[1] = target: T1, TRIM24-SFB (overexpressed in 293T cells) (UniProt O15164); experiment: co-IP; S-protein agarose beads pull-down of the SFB-tagged bait from 293T (HEK293T) lysates, 3 h at 4 °C; immunoblot; in Fig. 3d, h cells treated with 20 uM MG132 for 24 h
T1 sequence: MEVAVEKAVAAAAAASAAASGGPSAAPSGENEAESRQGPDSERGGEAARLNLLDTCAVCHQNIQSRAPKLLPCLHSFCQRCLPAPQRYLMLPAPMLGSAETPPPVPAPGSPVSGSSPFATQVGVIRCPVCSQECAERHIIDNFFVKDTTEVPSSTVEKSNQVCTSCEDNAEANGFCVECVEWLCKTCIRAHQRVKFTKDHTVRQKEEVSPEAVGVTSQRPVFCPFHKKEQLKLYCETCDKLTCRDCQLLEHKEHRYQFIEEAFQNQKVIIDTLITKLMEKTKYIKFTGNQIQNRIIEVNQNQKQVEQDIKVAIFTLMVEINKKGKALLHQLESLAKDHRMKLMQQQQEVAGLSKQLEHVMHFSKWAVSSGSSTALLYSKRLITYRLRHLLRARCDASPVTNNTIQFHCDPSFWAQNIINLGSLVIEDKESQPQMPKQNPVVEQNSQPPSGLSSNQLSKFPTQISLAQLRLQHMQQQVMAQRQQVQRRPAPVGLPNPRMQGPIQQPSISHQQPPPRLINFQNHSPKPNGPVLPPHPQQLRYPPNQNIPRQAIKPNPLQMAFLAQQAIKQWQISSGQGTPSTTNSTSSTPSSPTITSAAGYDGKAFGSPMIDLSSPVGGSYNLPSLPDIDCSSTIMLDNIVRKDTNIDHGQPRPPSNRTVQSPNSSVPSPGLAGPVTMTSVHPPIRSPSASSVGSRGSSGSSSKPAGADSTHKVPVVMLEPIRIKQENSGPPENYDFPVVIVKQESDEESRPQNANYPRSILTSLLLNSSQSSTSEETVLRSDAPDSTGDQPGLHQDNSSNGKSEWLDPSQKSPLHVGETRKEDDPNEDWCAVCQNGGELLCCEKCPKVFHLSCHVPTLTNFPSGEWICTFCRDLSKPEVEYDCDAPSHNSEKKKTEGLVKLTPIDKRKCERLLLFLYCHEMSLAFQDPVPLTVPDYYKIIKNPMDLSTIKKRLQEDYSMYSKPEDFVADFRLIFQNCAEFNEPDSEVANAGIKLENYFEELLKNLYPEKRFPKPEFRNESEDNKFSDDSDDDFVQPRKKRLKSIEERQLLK

[2] = target: T2, TRIM24 Δ300–460 mutant (TRIM24-SFB) (UniProt O15164); experiment: as above
T2 sequence: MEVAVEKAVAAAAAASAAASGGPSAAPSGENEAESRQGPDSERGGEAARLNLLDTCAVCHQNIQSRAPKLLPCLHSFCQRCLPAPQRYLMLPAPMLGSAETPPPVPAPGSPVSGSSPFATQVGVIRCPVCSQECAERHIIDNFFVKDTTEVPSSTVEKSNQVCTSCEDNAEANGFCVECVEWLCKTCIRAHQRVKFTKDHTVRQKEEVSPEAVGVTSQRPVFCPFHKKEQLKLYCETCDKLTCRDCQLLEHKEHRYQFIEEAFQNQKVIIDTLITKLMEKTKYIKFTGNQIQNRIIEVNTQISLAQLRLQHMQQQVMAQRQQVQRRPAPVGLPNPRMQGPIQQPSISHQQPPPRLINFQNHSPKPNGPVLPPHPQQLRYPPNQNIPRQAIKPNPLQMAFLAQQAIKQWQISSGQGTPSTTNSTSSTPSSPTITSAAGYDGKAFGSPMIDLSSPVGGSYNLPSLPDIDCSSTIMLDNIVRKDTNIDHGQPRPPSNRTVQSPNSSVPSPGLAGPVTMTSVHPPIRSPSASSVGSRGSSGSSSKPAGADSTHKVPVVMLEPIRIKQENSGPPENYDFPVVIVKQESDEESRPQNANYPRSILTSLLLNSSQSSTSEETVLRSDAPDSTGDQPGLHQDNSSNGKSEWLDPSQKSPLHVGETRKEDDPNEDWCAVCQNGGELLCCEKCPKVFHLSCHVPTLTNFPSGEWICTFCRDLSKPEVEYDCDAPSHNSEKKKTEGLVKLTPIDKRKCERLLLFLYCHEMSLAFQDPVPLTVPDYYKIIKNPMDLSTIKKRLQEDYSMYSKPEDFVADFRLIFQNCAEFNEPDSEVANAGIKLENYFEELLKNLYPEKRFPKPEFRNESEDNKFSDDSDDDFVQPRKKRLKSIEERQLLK

TRIM24-SFB = target: T3, TRIM24-SFB (UniProt O15164); experiment: pull-down; S-beads (S-protein agarose) pull down TRIM24-SFB from extract of HEK293T cells co-transfected with Myc-RBX1 or Myc-CUL3, with or without HA-TRIM28; cells treated with 20uM MG132 for 24 hrs; bound proteins analysed by immunoblotting
T3 sequence: T1 sequence

GST-TRIM24 (1–400aa) = target: T4, GST-TRIM24 (1–400aa) (UniProt O15164); experiment: pull-down; bacterial recombinant GST-TRIM24 (1–400aa) on GSH beads, incubated 2–3 h with LNCaP lysates expressing SFB-tagged TRIM28 full length or deletion mutants; washed with NETN; blot with anti-Flag; only the target purified
T4 sequence: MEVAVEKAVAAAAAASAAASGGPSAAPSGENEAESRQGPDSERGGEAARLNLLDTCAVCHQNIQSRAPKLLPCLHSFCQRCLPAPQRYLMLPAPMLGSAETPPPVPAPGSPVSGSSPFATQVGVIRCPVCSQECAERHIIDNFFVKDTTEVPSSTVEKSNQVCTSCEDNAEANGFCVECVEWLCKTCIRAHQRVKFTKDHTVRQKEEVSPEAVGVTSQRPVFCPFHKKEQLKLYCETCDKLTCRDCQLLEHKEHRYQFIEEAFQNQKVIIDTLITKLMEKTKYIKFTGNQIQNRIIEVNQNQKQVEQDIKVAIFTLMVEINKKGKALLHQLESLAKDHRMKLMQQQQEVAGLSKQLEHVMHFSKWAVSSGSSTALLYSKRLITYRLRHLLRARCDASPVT

[3] = target: endogenous TRIM28 (LNCaP cells) (human (endogenous in LNCaP)) (UniProt Q13263); experiment: co-IP; endogenous proteins; LNCaP lysate with 2 ug anti-TRIM28 overnight at 4 °C, Dynabeads Protein A 2 h; immunoblot
[4] = target: TRIM28-SFB (ectopic, 293T cells) (UniProt Q13263); experiment: co-IP; S-protein agarose beads pull-down of the SFB-tagged bait from 293T (HEK293T) lysates, 3 h at 4 °C; immunoblot; in Fig. 3d, h cells treated with 20 uM MG132 for 24 h

- binding [1]: binds
Molecule: endogenous TRIM28 (293T cells) (from UniProt Q13263 1-835)

- binding [2]: binds
- binding [1]: binds
Molecule: Myc-SPOP (from UniProt O43791 1-374)

- binding (TRIM24-SFB): binds
- binding [1]: binds
Molecule: HA-TRIM28 (from UniProt Q13263 1-835)

- binding (GST-TRIM24 (1–400aa)): binds
Molecule: SFB-tagged TRIM28 wild type (LNCaP cells) (from UniProt Q13263 1-835)

- binding [3]: binds
B1: endogenous TRIM24 (LNCaP cells) (protein, UniProt O15164 1-1050)
chain: T1 sequence

- binding [4]: binds
B2: TRIM24 in 293T cells (retained by TRIM28-SFB) (protein, UniProt O15164 1-1050)
chain: T1 sequence
